No constants are given. Whether binding was seen depends on the method and setting. Binding seen in cells or lysates may run through a third protein. Some entries that bind do so weakly or less than the wild type. For some of these results: Where a sequence is shown, tags or fusion partners need not be part of it.
T1: Myc-tagged TM6SF2 (mouse) (UniProt Q8R1J1)
T1 sequence: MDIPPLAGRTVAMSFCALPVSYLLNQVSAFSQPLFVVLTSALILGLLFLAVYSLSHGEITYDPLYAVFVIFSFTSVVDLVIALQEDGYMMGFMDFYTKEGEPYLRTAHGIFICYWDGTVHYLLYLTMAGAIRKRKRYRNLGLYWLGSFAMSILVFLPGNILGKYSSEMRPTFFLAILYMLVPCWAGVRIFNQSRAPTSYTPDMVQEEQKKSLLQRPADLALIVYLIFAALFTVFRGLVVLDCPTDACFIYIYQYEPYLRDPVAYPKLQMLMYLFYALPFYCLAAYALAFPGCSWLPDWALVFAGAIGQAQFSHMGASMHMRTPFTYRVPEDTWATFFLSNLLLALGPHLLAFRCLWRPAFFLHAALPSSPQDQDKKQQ

Protein sequences, listed by entry. Tags and fused reporters are not part of them. Residues count along the entry.
UniProt Q7TMA5, residues 28-4743: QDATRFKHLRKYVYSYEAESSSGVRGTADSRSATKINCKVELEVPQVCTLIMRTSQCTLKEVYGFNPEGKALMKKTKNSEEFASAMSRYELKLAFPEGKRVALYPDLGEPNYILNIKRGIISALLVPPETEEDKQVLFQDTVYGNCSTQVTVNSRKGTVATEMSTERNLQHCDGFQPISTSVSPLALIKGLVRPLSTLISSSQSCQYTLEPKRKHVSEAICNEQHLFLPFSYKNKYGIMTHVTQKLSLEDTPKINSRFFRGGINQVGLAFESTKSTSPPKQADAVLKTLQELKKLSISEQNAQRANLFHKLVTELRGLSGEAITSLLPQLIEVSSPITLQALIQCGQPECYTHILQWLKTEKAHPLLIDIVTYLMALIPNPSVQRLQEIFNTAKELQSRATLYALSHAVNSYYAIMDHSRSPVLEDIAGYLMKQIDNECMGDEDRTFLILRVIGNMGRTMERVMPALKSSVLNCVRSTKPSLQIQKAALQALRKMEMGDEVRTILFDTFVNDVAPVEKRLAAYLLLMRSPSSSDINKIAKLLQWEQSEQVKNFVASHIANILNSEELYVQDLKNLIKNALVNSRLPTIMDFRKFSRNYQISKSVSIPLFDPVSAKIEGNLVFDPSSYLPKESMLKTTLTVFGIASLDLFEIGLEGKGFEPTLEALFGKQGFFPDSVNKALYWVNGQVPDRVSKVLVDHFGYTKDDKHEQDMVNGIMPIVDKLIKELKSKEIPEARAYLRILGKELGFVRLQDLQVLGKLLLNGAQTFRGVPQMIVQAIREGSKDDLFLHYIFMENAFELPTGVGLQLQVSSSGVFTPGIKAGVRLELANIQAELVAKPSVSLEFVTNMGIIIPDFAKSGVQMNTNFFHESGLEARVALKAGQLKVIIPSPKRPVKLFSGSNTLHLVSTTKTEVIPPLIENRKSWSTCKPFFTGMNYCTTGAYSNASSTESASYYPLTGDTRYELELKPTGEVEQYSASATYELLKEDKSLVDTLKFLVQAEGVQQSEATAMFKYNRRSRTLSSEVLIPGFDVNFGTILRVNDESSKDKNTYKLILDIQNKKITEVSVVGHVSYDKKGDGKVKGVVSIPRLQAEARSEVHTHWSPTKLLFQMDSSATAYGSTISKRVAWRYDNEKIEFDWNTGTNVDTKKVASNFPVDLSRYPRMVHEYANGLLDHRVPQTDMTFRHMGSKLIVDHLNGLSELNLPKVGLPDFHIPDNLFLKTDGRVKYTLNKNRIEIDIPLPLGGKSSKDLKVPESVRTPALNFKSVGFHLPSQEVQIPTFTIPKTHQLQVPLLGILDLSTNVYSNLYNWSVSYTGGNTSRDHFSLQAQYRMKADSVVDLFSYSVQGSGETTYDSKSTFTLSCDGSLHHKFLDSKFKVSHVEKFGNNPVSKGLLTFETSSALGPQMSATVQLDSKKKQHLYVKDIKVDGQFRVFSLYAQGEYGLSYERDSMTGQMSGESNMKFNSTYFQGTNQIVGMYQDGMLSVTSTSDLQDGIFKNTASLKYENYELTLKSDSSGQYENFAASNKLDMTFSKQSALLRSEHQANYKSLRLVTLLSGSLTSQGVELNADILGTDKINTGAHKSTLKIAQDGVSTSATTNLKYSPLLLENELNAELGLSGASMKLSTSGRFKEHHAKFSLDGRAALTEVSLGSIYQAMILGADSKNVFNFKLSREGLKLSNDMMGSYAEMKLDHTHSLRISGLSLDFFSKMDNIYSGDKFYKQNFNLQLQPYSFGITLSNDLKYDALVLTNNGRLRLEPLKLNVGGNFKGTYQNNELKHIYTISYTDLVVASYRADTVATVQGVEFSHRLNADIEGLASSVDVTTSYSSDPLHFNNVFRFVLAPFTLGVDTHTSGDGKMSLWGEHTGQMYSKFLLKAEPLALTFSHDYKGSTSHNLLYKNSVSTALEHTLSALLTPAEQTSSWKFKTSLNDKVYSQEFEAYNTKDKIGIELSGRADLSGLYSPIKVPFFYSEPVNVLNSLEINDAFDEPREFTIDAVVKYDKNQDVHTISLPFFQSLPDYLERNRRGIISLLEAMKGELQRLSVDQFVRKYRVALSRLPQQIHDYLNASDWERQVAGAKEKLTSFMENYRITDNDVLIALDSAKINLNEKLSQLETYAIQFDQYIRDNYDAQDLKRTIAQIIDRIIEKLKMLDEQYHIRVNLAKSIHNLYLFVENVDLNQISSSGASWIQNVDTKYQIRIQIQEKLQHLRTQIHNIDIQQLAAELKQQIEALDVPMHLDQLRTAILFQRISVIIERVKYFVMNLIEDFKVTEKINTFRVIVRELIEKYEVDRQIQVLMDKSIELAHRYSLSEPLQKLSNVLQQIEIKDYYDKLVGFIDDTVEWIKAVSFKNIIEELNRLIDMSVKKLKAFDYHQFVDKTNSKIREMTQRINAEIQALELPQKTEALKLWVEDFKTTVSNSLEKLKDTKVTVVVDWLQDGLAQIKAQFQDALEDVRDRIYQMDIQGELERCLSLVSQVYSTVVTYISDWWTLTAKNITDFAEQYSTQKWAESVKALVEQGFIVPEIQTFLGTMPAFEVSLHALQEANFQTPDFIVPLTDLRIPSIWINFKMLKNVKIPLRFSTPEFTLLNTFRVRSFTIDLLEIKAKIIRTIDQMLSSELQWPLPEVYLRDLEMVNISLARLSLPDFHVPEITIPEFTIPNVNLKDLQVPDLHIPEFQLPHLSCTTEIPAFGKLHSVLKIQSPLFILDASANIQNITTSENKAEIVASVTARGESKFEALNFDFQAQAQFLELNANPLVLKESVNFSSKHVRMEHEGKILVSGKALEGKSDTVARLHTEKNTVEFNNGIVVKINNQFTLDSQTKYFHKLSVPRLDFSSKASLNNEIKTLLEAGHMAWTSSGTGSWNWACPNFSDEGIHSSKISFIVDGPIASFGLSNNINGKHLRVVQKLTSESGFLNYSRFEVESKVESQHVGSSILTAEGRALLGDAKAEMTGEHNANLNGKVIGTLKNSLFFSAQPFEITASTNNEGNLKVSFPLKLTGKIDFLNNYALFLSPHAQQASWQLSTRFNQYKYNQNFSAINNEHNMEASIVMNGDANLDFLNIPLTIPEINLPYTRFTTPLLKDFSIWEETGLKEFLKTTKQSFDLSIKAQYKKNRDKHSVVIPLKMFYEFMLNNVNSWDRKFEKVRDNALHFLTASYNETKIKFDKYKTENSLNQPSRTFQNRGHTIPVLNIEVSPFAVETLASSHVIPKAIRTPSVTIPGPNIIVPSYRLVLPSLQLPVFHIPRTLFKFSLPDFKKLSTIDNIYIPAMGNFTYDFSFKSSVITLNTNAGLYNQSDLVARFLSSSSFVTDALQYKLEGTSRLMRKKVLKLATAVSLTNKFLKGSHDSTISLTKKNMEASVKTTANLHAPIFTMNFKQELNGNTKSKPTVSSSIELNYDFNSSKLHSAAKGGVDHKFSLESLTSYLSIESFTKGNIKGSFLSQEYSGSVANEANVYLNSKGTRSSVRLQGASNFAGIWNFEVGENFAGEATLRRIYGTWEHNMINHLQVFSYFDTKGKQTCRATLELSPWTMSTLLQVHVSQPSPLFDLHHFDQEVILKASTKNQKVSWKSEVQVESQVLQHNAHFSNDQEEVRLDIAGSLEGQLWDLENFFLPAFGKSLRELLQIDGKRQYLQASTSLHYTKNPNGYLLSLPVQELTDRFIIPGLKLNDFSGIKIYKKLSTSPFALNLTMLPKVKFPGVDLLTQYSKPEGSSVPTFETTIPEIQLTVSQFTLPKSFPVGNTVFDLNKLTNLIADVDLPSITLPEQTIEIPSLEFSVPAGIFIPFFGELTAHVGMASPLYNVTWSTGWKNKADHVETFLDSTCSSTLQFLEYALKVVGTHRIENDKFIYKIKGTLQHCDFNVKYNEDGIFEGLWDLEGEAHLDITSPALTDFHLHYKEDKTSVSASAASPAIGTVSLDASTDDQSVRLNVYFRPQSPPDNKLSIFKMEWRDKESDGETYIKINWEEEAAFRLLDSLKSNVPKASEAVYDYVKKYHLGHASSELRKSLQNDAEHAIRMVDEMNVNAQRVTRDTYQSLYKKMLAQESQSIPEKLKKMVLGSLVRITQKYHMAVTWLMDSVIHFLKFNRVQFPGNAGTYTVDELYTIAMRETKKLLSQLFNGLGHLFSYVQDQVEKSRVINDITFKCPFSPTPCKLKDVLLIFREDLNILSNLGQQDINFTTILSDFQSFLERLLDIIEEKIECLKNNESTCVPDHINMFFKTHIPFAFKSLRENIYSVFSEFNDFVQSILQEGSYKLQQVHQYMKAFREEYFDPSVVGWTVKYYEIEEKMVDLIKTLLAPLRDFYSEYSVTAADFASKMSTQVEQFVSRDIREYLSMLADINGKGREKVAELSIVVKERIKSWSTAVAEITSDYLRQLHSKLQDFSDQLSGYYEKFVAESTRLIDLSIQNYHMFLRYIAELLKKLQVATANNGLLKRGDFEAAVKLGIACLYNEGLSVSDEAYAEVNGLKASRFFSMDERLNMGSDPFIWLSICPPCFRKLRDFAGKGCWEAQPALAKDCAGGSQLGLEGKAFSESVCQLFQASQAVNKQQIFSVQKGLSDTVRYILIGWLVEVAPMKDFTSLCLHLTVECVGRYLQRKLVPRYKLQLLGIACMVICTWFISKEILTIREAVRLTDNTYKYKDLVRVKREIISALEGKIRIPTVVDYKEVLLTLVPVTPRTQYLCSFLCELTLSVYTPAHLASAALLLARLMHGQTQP

B1: EGFP-tagged ERLIN1 (protein, UniProt O75477 1-348)
chain: MNMTQARVLVAAVVGLVAVLLYASIHKIEEGHLAVYYRGGALLTSPSGPGYHIMLPFITTFRSVQTTLQTDEVKNVPCGTSGGVMIYIDRIEVVNMLAPYAVFDIVRNYTADYDKTLIFNKIHHELNQFCSAHTLQEVYIELFDQIDENLKQALQKDLNLMAPGLTIQAVRVTKPKIPEAIRRNFELMEAEKTKLLIAAQKQKVVEKEAETERKKAVIEAEKIAQVAKIRFQQKVMEKETEKRISEIEDAAFLAREKAKADAEYYAAHKYATSNKHKLTPEYLELKKYQAIASNSKIYFGSNIPNMFVDSSCALKYSDIRTGRESSLPSKEALEPSGENVIQNKESTG
B2: ERLIN1 (co-expressed with Myc-tagged TM6SF2, Fig 3B) (protein, UniProt O75477 1-348)
chain: B1 chain
B3: ERLIN2 (co-expressed with Myc-tagged TM6SF2, Fig 3B) (protein, UniProt O94905 1-339)
chain: MAQLGAVVAVASSFFCASLFSAVHKIEEGHIGVYYRGGALLTSTSGPGFHLMLPFITSYKSVQTTLQTDEVKNVPCGTSGGVMIYFDRIEVVNFLVPNAVYDIVKNYTADYDKALIFNKIHHELNQFCSVHTLQEVYIELFDQIDENLKLALQQDLTSMAPGLVIQAVRVTKPNIPEAIRRNYELMESEKTKLLIAAQKQKVVEKEAETERKKALIEAEKVAQVAEITYGQKVMEKETEKKISEIEDAAFLAREKAKADAECYTAMKIAEANKLKLTPEYLQLMKYKAIASNSKIYFGKDIPNMFMDSAGSVSKQFEGLADKLSFGLEDEPLETATKEN
B4: endogenous TM6SF2 of CRL1601 cells (protein, UniProt B0BNG2 1-378)
chain: MDIPPLAGRTVAMSLGALPVSYVLNQVSAFSQPLCVVLTSALVLGLLFMAVYSLSHGEITYDPLYAVFVVFSFTSVVDLVIALQEDGYLMGLMDFYAKEGEPYLRTAHGIFICYWDGTVHYLLYLTMAGAIRKRKRYRNLGLYWLGSFAMSLLVFLPGNILGKYSSEIRPTFFLAILYMLVPCWAGMRIFNQSPAPSSCTCDVVQEEQKKSLLQRPADLTLIVYLILAAFFTVFRGLVVLDCPADACFIYIYQYEPYLRDPVAYPKLQMLMYLFYALPFYCLAAYALTFPGCSWLPDWALVFAGAIGQAQFSHMGASMHLRTPFTYRVPEDTWATFLLSNLLFALGPHLLALRCLWRPAFFLRAAPPSSPQDQGKKQQ

How the values were obtained:
[1] = molecular target: T1, Myc-tagged TM6SF2 (mouse); assay: co-IP; sequential immunoprecipitation from Huh7 cells transfected with FLAG-APOB48, Myc-TM6SF2 and EGFP-ERLIN1: first anti-FLAG beads, elution with 3×FLAG peptide, then anti-Myc beads; immunoblotting
[2] = molecular target: T1, Myc-tagged TM6SF2 (mouse); assay: co-IP; Huh7 cells co-transfected, harvested after 48 h; lysates in PBS, 0.1% NP-40 incubated with anti-FLAG or anti-MYC beads at 4°C for 2 h; immunoblotting
[3] = molecular target: endogenous APOB (APOB100 and APOB48) of CRL1601 cells (rat (endogenous in CRL1601)) (UniProt Q7TMA5); assay: co-IP; endogenous proteins; APOBs immunoprecipitated from CRL1601 lysates with protein A/G beads coupled with the anti-APOB antibody; immunoblotting; protein A/G beads (Ctr IgG) as control

Binder | binding [2] | further results
B1 |  | binding [1]: binds
B2 | binds | 
B3 | binds | 
B4 |  | binding [3]: binds

— PMC7462549
